Results deposited as PubChem BioAssay AID1224829 (NIAID, 2016).
Screen: 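Genes needed for LPS-driven NF-kappaB p65 nuclear entry in mouse macrophages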 (follow-up of hits). Cell system: mouse RAW264.7 G9 macrophage reporter cells. Knock-down reagent: single siRNA against mouse genes, 100 nM. Timing: 2 days of siRNA knock-down, then 40 min of LPS before fixing. Treatment: LPS (Salmonella minnesota R595) at 10 ng/ml. Measurement: 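High-content images after 40 min LPS exposure; GFP-p65 nucleus to surrounding ring signal ratio, normalised to plate median and non-targeting control wells, expressed as z-score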. Direction: p65 translocation z-score and gene median z-score, per vendor: higher = more nuclear NF-kappaB p65 after LPS. Active means: 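An siRNA is called active when the mean z-score of its two replicates is above 2 or below -2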. Meaning of the calls: active = changed p65 translocation (either direction); inactive = no clear change.
This is a random part of about 3,800 deposited reagents. 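Calls cover raised and lowered translocation; gene median uses one vendor's three siRNAs; qiagen siRNAs acted more weakly than ambion siRNAs.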 A number with no mark means an inactive call. The numbers tell different reagents against one gene apart.

| Target gene | reagent no. | siRNA vendor or control pool | p65 translocation z-score, replicate mean | p65 translocation z-score, replicate 1 | p65 translocation z-score, replicate 2 | gene median z-score, per vendor |
| --- | --- | --- | --- | --- | --- | --- |
| Fam89b | 1 | ambion single siRNA | 4.09 (active) | 6.51 | 1.67 | -1.02 |
| Fam89b | 2 | ambion single siRNA | -1.53 | -1.34 | -1.72 | -1.02 |
| Fam89b | 3 | ambion single siRNA | -1.02 | -1.02 | – | -1.02 |
| Fam89b | 4 | qiagen single siRNA | 1.04 | 1.34 | 0.749 | 0.914 |
| Fam89b | 5 | qiagen single siRNA | 0.573 | 1.08 | 0.0673 | 0.914 |
| Fam89b | 6 | qiagen single siRNA | 1.24 | 0.185 | 2.3 | 0.914 |
| Man2b2 | 1 | ambion single siRNA | -2.21 (active) | -2.28 | -2.13 | -2.13 |
| Man2b2 | 2 | ambion single siRNA | -2.04 (active) | -2.02 | -2.06 | -2.13 |
| Man2b2 | 3 | ambion single siRNA | -2.98 (active) | -2.98 | – | -2.13 |
| Man2b2 | 4 | qiagen single siRNA | 1.79 | 1.41 | 2.17 | 0.612 |
| Man2b2 | 5 | qiagen single siRNA | 0.612 | 1.18 | 0.0383 | 0.612 |
| Man2b2 | 6 | qiagen single siRNA | -2.36 (active) | -2.18 | -2.53 | 0.612 |
| Bok | 1 | ambion single siRNA | -6.26 (active) | -6.54 | -5.98 | -2.87 |
| Bok | 2 | ambion single siRNA | -1.11 | 0.87 | -3.08 | -2.87 |
| Bok | 3 | ambion single siRNA | -2.4 (active) | -2.65 | -2.15 | -2.87 |
| Exosc1 | 1 | ambion single siRNA | -0.855 | -1.82 | 0.112 | -1.85 |
| Exosc1 | 2 | ambion single siRNA | -2.66 (active) | -3.47 | -1.85 | -1.85 |
| Exosc1 | 3 | ambion single siRNA | -3.52 (active) | -3.52 | – | -1.85 |
| Exosc1 | 4 | qiagen single siRNA | -0.943 | -1.87 | -0.0144 | -1.63 |
| Exosc1 | 5 | qiagen single siRNA | -1.53 | -1.43 | -1.63 | -1.63 |
| Exosc1 | 6 | qiagen single siRNA | -1.73 | -1.73 | – | -1.63 |
| Fbh1 | 1 | ambion single siRNA | -3.31 (active) | -6.66 | 0.0314 | -1.24 |
| Fbh1 | 2 | ambion single siRNA | 0.914 | 2.49 | -0.657 | -1.24 |
| Fbh1 | 3 | ambion single siRNA | -2.46 (active) | -3.1 | -1.82 | -1.24 |
| Fbh1 | 4 | qiagen single siRNA | 1.32 | 1.23 | 1.41 | -0.685 |
| Fbh1 | 5 | qiagen single siRNA | -1.07 | -1.46 | -0.685 | -0.685 |
| Fbh1 | 6 | qiagen single siRNA | -3.1 (active) | -3.1 | – | -0.685 |
| Adipoq | 1 | ambion single siRNA | -0.94 | -0.628 | -1.25 | -1.88 |
| Adipoq | 2 | ambion single siRNA | -1.88 | -2.48 | -1.28 | -1.88 |
| Adipoq | 3 | ambion single siRNA | -6.07 (active) | -7.04 | -5.09 | -1.88 |
| Adipoq | 4 | qiagen single siRNA | 1.38 | 1.12 | 1.63 | -0.52 |
| Adipoq | 5 | qiagen single siRNA | -0.52 | -0.639 | -0.4 | -0.52 |
| Adipoq | 6 | qiagen single siRNA | -3.86 (active) | -3.24 | -4.47 | -0.52 |
| Flvcr1 | 1 | qiagen single siRNA | 2.45 (active) | 1.32 | 3.57 | 1.27 |
| Flvcr1 | 2 | qiagen single siRNA | 1.37 | 1.21 | 1.53 | 1.27 |
| Flvcr1 | 3 | qiagen single siRNA | -3.03 (active) | -2.44 | -3.62 | 1.27 |
| Ncor2 | 1 | ambion single siRNA | -3.17 (active) | -3.98 | -2.37 | -2.37 |
| Ncor2 | 2 | ambion single siRNA | -1.24 | -1.19 | -1.29 | -2.37 |
| Ncor2 | 3 | ambion single siRNA | -5.14 (active) | -5.14 | – | -2.37 |
| Ncor2 | 4 | qiagen single siRNA | -1.86 | -1.51 | -2.2 | -1.86 |
| Ncor2 | 5 | qiagen single siRNA | -2.49 (active) | -1.51 | -3.47 | -1.86 |
| Ncor2 | 6 | qiagen single siRNA | -1.77 | -0.172 | -3.38 | -1.86 |
| Ndufaf4 | 1 | ambion single siRNA | -2.42 (active) | -3.27 | -1.57 | -3.12 |
| Ndufaf4 | 2 | ambion single siRNA | -0.446 | 2.09 | -2.98 | -3.12 |
| Ndufaf4 | 3 | ambion single siRNA | -7.16 (active) | -5.24 | -9.09 | -3.12 |
| Ndufaf4 | 4 | qiagen single siRNA | 1.9 | 1.31 | 2.49 | 0.56 |
| Ndufaf4 | 5 | qiagen single siRNA | 1.41 | -0.191 | 3.01 | 0.56 |
| Ndufaf4 | 6 | qiagen single siRNA | -2.73 (active) | -3.32 | -2.15 | 0.56 |
| Ido1 | 1 | ambion single siRNA | -5.25 (active) | -7.42 | -3.08 | -4.1 |
| Ido1 | 2 | ambion single siRNA | -1.28 | 1.45 | -4.01 | -4.1 |
| Ido1 | 3 | ambion single siRNA | -6.49 (active) | -8.8 | -4.19 | -4.1 |
| Ido1 | 4 | qiagen single siRNA | 3.57 (active) | 1.76 | 5.39 | 1.67 |
| Ido1 | 5 | qiagen single siRNA | 1.57 | 1.57 | 1.56 | 1.67 |
| Ido1 | 6 | qiagen single siRNA | 0.601 | -1.18 | 2.38 | 1.67 |
| D6Ertd160e | 1 | qiagen single siRNA | 2.06 (active) | 1.97 | 2.16 | 0.511 |
| D6Ertd160e | 2 | qiagen single siRNA | -0.0358 | -1.25 | 1.18 | 0.511 |
| D6Ertd160e | 3 | qiagen single siRNA | -0.401 | -0.155 | -0.647 | 0.511 |
| Tbx21 | 1 | ambion single siRNA | 1.71 | 0.587 | 2.83 | 2.58 |
| Tbx21 | 2 | ambion single siRNA | 1.08 | 2.34 | -0.188 | 2.58 |
| Tbx21 | 3 | ambion single siRNA | 3.49 (active) | 3.19 | 3.78 | 2.58 |
| Tbx21 | 4 | qiagen single siRNA | 0.808 | 0.0108 | 1.61 | 0.495 |
| Tbx21 | 5 | qiagen single siRNA | 1.25 | 1.52 | 0.978 | 0.495 |
| Tbx21 | 6 | qiagen single siRNA | -2.75 (active) | -3.19 | -2.31 | 0.495 |
| Nr1d1 | 1 | ambion single siRNA | -5.95 (active) | -6.6 | -5.3 | -4.12 |
| Nr1d1 | 2 | ambion single siRNA | -1.22 | -0.665 | -1.77 | -4.12 |
| Nr1d1 | 3 | ambion single siRNA | -4.12 (active) | -5.02 | -3.22 | -4.12 |
| Nr1d1 | 4 | qiagen single siRNA | -0.781 | -0.462 | -1.1 | -1.05 |
| Nr1d1 | 5 | qiagen single siRNA | -3.94 (active) | -1.56 | -6.33 | -1.05 |
| Nr1d1 | 6 | qiagen single siRNA | -0.829 | -0.656 | -1 | -1.05 |
